Reference: paper PMC4505944, “The THERMOSENSITIVE MALE STERILE 1 Interacts with the BiPs via DnaJ Domain and Stimulates Their ATPase Enzyme Activities in Arabidopsis” (PLoS ONE, 2015)
No constants are given. Whether binding was seen depends on the method and setting.

Sequences of proteins named here, by UniProt entry; tags and fusion partners are left off. A change or cut given only in a name is not applied to a line headed by its entry. Residues count along the entry.
UniProt Q9SR96: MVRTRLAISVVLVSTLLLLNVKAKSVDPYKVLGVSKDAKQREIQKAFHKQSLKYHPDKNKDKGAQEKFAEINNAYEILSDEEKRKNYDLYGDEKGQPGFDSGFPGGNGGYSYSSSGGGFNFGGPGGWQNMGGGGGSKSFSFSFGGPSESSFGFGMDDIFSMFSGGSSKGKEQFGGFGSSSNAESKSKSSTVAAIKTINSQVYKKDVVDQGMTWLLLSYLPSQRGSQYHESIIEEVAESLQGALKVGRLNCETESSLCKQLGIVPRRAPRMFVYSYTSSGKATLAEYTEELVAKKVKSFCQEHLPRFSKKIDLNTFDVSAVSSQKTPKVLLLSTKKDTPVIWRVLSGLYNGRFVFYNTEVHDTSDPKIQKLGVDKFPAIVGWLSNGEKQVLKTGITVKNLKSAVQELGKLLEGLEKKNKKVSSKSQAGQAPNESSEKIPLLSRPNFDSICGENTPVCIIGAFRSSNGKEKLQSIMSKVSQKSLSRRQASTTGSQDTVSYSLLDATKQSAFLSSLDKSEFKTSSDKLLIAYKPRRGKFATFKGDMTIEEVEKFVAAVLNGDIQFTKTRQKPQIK
UniProt Q9LKR3, residues 28-669: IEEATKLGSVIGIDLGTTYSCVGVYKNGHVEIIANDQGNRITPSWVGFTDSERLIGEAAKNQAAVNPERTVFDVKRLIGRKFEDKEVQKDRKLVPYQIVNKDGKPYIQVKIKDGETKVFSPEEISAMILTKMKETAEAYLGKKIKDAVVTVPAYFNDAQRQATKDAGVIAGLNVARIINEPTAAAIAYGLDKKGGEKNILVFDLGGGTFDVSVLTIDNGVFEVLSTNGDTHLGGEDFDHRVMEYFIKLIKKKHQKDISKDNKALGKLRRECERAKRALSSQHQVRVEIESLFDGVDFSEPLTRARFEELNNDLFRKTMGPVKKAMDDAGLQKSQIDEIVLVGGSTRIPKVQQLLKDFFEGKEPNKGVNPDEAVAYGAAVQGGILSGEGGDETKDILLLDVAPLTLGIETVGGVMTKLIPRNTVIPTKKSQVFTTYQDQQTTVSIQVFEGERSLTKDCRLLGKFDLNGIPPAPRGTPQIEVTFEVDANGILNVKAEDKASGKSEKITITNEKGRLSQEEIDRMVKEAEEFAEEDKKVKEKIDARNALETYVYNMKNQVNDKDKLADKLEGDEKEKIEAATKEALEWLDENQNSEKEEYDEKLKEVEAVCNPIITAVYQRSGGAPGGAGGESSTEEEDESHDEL
UniProt Q8H1B3, residues 36-675: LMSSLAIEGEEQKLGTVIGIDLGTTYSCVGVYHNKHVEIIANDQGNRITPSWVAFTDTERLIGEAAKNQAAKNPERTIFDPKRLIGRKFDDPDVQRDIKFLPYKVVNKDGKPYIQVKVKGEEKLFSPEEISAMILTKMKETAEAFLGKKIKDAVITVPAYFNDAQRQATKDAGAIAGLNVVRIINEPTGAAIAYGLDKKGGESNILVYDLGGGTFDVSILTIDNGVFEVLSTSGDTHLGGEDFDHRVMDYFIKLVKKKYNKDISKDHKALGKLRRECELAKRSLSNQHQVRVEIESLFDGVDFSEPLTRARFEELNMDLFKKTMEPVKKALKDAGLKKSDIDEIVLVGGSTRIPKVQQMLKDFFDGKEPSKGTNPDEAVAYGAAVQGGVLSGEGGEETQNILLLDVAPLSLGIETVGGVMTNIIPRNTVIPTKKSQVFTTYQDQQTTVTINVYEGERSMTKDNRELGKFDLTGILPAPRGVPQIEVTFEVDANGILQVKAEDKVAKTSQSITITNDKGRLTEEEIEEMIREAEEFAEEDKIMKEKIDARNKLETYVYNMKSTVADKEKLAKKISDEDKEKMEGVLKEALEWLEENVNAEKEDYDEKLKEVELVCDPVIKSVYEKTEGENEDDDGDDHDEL

Tests used:
[1] = target: mutated TMS1 DnaJ domain with a GST tag (Arabidopsis thaliana) (UniProt Q9SR96); experiment: pull-down; as the GST pull-down with ATP, but in the absence of ATP; GST fusion or GST on Glutathione Sepharose 4B beads, purified BiP1 or BiP3 added; anti-His blot; both purified
[2] = target: mutated TMS1 DnaJ domain with a GST tag (Arabidopsis thaliana) (UniProt Q9SR96); experiment: pull-down; 30 μg GST fusion or GST on Glutathione Sepharose 4B beads; 30 μg purified BiP1 or BiP3 with 1 mM ATP in 1 mL binding buffer (20 mM Hepes pH 6.8, 100 mM KCl, 5 mM MgCl2, 0.1% NP-40, 2% glycerol, 1 mM DTT, 1 mM EDTA), 4°C, 2 h; anti-His blot; both purified

| Substance | binding [1] | binding [2] |
| --- | --- | --- |
| BiP1 without signal peptide, His-tagged (from UniProt Q9LKR3 28-669) | no binding (tested: 30 μg in 1 mL) | no binding (tested: 30 μg in 1 mL) |
| BiP3 without signal peptide, His-tagged (from UniProt Q8H1B3 36-675) | no binding (tested: 30 μg in 1 mL) | no binding (tested: 30 μg in 1 mL) |
